In the experiment the target is KMT2A (human (endogenous in HEK293T)) (UniProt Q03164). The experiment can be described thus: co-IP.

By UniProt entry, the sequences of proteins in these tests, tags left out.
UniProt Q03164: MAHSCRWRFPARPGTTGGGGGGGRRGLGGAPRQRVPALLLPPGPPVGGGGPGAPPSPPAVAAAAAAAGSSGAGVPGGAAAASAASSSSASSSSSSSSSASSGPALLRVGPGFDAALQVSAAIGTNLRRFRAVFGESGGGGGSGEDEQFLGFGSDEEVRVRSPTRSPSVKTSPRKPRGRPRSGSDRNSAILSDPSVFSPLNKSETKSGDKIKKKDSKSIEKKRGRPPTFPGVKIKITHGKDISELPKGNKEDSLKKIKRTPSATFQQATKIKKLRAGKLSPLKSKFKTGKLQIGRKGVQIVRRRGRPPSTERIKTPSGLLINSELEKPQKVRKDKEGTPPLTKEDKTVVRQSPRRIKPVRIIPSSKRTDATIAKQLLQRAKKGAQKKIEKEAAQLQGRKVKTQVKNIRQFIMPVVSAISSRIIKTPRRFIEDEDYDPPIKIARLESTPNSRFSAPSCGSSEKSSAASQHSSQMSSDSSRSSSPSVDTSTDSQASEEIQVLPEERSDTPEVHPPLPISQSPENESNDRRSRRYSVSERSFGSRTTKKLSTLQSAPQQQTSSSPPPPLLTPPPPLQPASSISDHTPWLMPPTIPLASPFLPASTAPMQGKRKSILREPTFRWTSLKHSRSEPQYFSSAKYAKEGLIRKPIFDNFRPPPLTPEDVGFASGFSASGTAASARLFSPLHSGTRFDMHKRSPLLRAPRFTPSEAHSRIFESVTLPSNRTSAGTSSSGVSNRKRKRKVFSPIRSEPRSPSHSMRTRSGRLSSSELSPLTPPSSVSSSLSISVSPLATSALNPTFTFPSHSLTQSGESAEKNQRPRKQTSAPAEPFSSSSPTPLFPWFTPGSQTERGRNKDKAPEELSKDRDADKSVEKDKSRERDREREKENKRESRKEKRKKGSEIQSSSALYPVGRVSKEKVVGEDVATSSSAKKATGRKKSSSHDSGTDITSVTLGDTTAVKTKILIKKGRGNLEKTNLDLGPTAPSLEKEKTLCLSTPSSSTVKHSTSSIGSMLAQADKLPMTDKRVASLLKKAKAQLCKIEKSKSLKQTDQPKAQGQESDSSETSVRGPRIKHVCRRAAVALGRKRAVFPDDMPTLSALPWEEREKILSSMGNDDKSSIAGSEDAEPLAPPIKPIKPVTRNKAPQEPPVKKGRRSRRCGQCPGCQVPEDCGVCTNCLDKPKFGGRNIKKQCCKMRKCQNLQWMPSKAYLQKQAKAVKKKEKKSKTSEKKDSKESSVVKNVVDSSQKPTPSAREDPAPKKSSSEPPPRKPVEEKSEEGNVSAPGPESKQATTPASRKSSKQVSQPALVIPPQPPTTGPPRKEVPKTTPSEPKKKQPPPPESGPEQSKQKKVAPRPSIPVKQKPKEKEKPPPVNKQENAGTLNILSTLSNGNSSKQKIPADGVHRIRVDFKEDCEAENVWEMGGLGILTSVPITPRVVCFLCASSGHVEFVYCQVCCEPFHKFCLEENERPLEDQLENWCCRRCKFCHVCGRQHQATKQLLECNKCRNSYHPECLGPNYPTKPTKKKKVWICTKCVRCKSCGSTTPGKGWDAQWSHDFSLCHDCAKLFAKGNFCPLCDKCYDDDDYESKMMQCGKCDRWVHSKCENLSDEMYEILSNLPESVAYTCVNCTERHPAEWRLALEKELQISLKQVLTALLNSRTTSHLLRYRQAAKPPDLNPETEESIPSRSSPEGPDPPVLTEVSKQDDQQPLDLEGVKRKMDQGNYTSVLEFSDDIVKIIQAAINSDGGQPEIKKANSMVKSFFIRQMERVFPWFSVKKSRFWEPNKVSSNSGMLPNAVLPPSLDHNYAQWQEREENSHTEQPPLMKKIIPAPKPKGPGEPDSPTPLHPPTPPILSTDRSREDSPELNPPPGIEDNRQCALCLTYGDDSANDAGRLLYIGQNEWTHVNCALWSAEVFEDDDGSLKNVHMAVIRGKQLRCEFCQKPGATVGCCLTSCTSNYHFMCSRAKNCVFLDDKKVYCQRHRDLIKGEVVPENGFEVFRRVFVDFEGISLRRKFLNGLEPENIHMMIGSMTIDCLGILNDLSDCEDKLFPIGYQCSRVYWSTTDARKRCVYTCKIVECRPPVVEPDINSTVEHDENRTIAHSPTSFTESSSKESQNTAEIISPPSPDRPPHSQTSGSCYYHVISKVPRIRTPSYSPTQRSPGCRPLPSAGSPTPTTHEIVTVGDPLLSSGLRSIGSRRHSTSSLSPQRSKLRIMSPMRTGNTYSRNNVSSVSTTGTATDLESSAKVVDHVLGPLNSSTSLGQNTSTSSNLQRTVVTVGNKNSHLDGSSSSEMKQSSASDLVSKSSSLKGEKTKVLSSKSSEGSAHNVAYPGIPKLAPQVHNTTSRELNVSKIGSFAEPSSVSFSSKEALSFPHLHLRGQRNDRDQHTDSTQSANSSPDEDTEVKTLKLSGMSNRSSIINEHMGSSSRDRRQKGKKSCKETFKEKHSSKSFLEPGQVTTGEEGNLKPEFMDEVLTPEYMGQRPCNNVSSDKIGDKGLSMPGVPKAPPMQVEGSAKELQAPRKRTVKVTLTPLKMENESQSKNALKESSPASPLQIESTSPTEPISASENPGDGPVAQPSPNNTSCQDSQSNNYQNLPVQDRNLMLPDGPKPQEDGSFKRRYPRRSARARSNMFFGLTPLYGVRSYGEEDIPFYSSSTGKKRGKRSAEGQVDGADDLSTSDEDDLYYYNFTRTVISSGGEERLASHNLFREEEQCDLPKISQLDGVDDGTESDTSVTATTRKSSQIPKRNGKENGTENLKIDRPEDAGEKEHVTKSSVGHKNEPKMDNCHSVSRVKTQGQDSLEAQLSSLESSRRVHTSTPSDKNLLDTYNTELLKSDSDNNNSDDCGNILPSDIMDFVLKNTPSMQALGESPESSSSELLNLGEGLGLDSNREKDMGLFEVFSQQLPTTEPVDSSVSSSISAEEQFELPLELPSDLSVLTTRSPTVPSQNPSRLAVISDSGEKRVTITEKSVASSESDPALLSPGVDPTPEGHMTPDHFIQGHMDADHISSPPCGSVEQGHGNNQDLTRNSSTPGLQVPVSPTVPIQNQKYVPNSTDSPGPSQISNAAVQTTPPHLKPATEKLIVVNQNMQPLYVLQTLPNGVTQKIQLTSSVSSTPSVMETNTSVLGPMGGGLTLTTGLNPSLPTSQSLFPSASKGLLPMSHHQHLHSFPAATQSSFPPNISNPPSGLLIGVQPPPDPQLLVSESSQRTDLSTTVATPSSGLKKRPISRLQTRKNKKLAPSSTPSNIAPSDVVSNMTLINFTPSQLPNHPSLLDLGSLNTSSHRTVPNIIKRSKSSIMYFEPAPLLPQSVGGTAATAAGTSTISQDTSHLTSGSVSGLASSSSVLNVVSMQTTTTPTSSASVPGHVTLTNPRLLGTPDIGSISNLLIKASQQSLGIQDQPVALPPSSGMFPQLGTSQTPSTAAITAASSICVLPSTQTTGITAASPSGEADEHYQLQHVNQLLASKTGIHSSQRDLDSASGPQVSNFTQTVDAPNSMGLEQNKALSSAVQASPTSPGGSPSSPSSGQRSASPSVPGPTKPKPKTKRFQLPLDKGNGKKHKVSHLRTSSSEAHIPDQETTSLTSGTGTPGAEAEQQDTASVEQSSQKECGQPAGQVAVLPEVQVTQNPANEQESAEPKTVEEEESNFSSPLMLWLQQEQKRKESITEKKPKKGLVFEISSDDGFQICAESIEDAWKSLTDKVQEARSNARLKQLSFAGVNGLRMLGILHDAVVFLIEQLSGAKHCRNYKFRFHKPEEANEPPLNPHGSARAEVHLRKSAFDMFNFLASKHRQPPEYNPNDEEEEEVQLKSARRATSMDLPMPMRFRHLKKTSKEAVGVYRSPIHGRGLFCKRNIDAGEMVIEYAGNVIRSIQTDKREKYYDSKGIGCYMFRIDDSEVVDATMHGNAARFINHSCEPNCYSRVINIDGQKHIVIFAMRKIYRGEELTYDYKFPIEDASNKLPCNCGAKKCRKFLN

Results are given in words; binding and its absence hold for the method and conditions named. Binding seen in cells or lysates may run through a third protein. Binding can be weak; no strength is given.

Turning to “Adam13 (Xenopus laevis adam13.L) (from UniProt O12960)”, the binding result is “binds”.

The values above are taken from article doi:10.1101/2024.08.18.608474.
